{
  "source": "patent US20180311369A1",
  "about": "(WRIGHT STATE UNIVERSITY, published 2018)",
  "target": "MAGI-1 PDZ2 domain",
  "experiment": "ligand binding assay with purified PDZ domain",
  "note": "No constants are given. Whether binding was seen depends on the method and setting.",
  "data": [
    {"binder": "GRKKRRQRRRPPQYKTDGITVV (also called TAT-PDZ3 peptide)", "note": "[TAT-CAR^Ex8]", "values": [
      {"measurement": "binding", "value": "no binding"}
    ]}
  ]
}
